These are yes or no findings as the source states them, for the method shown. Binding seen in cells or lysates may run through a third protein. These calls come from enrichment with a bait or labelling near it, and not all partners need be listed.
The substances below were run against CHD1^WT-Venus (chromodomain helicase DNA-binding 1, wild type) (human) (UniProt O14646) (assay: proximity labelling; antibody-based in situ biotinylation: fixed (4% PFA), permeabilised HeLa cells, anti-GFP primary antibody, HRP-conjugated secondary antibody, biotin-tyramide and H2O2 for 1 min (~20 nm radius), avidin pull-down, LC-MS/MS with label-free quantification; single biological replicate).

Sequences of proteins named here, by UniProt entry; tags and fusion partners are left off.
UniProt O14646: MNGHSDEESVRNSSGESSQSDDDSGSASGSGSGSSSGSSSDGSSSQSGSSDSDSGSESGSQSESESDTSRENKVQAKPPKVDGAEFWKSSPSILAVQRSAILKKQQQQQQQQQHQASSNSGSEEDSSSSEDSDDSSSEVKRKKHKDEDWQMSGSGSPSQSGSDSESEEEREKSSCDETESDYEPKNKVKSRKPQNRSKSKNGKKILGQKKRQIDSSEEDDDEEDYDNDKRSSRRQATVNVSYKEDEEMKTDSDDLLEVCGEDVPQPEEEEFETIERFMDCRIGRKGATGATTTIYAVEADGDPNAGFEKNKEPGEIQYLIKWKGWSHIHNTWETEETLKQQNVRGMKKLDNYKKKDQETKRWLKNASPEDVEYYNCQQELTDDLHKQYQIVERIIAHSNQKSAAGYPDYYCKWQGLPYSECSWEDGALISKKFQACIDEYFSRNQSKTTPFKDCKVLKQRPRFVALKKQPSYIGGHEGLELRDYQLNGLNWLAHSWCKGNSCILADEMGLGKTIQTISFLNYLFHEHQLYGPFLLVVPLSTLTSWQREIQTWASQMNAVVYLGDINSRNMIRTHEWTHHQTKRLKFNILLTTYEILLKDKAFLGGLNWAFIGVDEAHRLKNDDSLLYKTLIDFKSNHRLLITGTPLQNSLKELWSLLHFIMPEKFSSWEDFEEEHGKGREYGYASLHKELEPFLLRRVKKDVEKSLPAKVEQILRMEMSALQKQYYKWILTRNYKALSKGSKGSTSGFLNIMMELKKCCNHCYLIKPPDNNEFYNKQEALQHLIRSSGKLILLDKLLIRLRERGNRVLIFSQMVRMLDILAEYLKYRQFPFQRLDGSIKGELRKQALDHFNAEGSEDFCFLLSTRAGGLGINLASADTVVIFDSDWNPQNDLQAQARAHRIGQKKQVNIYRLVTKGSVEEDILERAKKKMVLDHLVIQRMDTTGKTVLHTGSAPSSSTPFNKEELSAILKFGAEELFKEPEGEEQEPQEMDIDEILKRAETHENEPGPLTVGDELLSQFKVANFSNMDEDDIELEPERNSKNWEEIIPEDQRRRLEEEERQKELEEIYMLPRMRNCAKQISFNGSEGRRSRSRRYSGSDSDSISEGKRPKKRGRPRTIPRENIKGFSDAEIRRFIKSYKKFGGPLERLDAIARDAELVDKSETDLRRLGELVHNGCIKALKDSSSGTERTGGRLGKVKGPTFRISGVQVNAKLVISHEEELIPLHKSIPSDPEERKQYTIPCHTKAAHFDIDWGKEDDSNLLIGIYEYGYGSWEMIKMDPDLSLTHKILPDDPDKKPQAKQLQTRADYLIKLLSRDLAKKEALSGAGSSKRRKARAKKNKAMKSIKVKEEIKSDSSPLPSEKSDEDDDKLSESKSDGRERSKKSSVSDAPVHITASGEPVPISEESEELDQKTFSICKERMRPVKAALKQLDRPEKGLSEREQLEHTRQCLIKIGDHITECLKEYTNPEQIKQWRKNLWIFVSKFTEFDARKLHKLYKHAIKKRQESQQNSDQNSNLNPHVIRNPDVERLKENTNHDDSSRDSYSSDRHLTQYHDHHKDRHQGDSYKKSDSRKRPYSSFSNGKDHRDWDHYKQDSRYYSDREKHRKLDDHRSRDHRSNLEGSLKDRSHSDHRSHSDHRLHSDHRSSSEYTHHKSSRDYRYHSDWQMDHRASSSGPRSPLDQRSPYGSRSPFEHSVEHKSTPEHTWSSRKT
UniProt Q9H9B1: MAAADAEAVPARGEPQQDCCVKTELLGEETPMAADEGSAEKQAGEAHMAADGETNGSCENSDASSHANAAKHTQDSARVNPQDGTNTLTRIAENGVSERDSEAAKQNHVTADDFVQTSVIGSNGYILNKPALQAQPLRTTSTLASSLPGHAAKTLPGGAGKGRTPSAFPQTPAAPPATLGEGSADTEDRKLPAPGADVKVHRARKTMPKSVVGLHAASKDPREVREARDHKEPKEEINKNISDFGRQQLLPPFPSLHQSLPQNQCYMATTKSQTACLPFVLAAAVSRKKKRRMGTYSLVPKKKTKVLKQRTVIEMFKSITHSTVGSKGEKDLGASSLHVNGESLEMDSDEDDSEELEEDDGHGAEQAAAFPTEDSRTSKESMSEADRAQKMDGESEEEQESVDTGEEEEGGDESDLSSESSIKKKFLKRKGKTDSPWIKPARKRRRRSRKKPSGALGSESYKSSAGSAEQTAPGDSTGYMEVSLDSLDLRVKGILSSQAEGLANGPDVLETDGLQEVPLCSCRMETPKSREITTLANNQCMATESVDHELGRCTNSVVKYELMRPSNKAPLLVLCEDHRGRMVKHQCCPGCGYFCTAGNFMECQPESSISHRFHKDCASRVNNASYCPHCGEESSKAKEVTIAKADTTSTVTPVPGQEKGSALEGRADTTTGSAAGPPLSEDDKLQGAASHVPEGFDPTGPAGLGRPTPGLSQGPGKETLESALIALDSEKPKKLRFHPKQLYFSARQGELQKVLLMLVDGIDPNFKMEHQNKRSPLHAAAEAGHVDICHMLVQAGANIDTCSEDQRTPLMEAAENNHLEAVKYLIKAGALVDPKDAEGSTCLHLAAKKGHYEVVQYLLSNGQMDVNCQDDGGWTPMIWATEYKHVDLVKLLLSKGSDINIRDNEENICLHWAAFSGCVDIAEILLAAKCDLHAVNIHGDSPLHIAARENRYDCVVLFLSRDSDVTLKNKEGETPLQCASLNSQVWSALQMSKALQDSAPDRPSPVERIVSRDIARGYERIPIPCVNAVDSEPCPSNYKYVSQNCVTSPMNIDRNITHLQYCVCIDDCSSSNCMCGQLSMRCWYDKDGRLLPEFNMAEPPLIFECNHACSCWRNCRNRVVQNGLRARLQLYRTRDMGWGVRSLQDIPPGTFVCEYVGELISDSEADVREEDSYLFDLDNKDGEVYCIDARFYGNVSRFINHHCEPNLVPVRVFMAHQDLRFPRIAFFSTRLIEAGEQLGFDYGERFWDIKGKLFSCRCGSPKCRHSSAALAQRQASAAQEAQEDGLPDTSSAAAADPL
UniProt Q96L91: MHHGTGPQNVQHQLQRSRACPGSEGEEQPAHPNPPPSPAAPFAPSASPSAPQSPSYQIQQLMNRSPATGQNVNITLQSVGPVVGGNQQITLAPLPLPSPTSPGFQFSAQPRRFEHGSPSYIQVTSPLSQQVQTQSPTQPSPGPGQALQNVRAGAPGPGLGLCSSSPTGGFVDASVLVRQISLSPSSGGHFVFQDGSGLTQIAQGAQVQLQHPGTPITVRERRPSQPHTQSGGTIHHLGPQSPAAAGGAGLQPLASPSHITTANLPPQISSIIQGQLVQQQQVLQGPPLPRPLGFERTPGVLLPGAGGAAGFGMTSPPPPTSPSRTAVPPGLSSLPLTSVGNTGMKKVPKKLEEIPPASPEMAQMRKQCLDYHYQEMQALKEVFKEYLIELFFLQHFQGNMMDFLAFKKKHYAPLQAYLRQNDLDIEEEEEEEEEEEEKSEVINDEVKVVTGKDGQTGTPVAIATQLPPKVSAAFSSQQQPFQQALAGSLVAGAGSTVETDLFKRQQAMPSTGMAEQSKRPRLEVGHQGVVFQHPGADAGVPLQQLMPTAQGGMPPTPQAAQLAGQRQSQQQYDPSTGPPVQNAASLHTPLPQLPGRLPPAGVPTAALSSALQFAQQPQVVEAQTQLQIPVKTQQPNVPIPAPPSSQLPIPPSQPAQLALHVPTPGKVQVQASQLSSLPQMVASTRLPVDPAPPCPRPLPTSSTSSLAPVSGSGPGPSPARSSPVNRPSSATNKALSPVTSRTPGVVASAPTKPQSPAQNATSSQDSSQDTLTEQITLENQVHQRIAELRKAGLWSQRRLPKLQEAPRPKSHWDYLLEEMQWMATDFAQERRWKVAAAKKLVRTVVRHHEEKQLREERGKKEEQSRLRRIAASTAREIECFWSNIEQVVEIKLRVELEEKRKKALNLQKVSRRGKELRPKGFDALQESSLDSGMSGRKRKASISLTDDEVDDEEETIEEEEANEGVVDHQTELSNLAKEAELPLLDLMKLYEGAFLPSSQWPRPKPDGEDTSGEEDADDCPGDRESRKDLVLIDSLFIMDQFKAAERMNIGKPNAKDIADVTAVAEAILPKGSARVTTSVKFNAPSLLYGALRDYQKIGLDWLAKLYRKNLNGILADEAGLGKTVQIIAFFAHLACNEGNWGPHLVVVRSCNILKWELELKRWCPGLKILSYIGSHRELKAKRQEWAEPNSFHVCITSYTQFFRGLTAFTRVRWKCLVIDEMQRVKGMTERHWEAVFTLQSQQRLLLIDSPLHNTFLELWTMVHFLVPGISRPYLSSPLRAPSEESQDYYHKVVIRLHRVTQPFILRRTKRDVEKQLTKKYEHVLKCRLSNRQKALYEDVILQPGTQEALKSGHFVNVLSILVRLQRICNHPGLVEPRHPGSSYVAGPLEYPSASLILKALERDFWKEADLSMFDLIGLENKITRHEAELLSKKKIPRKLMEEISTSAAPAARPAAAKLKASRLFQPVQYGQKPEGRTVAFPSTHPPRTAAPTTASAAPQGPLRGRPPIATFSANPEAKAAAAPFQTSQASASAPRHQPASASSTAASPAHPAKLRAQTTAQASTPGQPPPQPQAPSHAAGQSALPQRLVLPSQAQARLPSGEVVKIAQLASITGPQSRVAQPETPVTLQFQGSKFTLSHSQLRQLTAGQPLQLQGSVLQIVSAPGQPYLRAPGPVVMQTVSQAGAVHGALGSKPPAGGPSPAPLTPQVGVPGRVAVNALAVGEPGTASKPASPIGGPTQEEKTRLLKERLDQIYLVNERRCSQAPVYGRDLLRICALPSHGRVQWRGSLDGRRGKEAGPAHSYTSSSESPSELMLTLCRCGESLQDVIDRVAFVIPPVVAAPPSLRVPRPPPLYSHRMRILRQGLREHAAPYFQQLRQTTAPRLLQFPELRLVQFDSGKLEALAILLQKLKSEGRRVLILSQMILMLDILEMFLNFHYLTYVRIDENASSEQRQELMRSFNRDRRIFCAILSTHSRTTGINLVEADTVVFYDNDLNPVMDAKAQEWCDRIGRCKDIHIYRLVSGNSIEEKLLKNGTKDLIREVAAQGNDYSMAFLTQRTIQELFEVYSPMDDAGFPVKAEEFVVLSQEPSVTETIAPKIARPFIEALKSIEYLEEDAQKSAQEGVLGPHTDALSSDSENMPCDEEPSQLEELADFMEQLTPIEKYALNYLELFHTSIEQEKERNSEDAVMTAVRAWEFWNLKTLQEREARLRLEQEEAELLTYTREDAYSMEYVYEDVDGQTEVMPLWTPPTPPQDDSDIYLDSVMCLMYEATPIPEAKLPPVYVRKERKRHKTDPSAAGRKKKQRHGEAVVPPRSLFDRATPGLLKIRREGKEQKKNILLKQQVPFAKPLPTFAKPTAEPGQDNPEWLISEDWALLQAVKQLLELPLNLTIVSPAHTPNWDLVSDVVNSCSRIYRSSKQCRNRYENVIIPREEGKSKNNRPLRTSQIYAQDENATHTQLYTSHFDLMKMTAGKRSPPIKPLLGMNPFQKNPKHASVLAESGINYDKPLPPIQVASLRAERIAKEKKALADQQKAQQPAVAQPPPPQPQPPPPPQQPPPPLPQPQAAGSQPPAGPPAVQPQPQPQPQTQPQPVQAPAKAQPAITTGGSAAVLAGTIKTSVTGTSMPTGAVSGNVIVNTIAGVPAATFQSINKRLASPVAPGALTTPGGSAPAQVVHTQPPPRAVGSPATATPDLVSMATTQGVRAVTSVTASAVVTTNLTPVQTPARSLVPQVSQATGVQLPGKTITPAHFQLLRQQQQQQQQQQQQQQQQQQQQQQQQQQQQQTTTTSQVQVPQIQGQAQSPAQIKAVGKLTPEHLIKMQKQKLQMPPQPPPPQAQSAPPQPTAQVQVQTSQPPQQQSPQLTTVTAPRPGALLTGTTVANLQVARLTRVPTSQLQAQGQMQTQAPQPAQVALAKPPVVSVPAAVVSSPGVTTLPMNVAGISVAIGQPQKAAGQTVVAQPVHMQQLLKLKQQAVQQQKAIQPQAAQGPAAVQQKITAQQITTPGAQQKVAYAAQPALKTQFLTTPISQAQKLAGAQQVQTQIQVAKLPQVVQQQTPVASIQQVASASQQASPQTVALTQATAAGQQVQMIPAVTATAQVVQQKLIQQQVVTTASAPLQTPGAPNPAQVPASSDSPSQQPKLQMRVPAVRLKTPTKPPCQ

binding, binds:
ASH2L (from UniProt Q9UBL3 1-628)
EHMT1 (from UniProt Q9H9B1 1-1298)
SUZ12 (from UniProt Q15022 1-739)
EP400 (from UniProt Q96L91 1-3159)

— PMC12575849
